# From PMC5886296
# Results are given in words; binding and its absence hold for the method and conditions named. Binding calls can cover weak binding; strength is not graded here. Where a sequence is shown, tags or fusion partners need not be part of it.
# Biological target: T1, DNAAF1 fused to the GAL4 DNA-binding domain (pBD-DNAAF1) (human) (UniProt Q8NEP3)
# T1 sequence: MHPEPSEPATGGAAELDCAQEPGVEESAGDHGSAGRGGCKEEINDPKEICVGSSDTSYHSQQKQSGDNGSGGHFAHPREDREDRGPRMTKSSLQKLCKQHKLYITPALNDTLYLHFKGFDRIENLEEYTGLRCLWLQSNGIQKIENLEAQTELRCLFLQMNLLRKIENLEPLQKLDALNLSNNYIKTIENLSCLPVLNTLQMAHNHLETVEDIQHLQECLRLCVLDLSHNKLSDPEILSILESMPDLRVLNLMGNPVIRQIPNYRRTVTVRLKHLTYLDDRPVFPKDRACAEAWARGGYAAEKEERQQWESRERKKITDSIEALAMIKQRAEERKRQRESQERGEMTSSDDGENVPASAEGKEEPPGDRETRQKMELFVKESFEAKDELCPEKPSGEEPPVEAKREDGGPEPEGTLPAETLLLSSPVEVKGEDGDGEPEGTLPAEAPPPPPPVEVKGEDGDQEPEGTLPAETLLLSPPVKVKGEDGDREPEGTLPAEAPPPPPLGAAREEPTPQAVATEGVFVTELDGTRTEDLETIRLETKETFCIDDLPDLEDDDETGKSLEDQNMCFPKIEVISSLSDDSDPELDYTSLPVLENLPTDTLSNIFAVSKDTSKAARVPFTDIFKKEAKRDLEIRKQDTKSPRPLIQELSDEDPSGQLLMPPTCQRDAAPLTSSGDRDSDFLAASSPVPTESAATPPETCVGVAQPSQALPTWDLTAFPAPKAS
# Assay: two-hybrid; dedicated one-to-one yeast two-hybrid; DNAAF1-BD against full-length and truncated IFT88
row,Substance,binding
1,C-terminal truncated IFT88 (1–449) (from UniProt Q13099-2) (domain or fragment),no binding
2,N-terminally truncated IFT88 (442–833) (domain or fragment),binds
